{
  "source": "paper PMC7261184",
  "about": "“Human REXO2 controls short mitochondrial RNAs generated by mtRNA processing and decay machinery to prevent accumulation of double-stranded RNA” (Nucleic Acids Research, 2020)",
  "binders": {"B1": {"name": "REXO2 with alanine substitution of Phe215 and Trp179 (dimerization-deficient variant) (enzyme, UniProt Q9Y3B8 29-237)", "chain": "GGAAMAAGESMAQRMVWVDLEMTGLDIEKDQIIEMACLITDSDLNILAEGPNLIIKQPDELLDSMSDWCKEHHGKSGLTKAVKESTITLQQAEYEFLSFVRQQTPPGLCPLAGNSVHEDKKFLDKYMPQFMKHLHYRIIDVSTVKELCRRAYPEEYEFAPKKAASHRALDDISESIKELQFYRNNIAKKKIDEKKRKIIENGENEKTVS"}},
  "target": "REXO2 with alanine substitution of Phe215 and Trp179 (dimerization-deficient variant) (human) (UniProt Q9Y3B8)",
  "assay": "SEC-MALS; gel filtration coupled with multi-angle light scattering; both purified",
  "note": "Results are given in words; binding and its absence hold for the method and conditions named.",
  "data": [
    {"binder": "B1", "values": [
      {"measurement": "binding", "result": "no binding"}
    ]}
  ]
}
